# Measured values as given in PubChem BioAssay (EPA / NIEHS).
# Sequences of proteins named here, by UniProt entry; tags and fusion partners are left off. A change or cut given only in a name is not applied to a line headed by its entry.
# UniProt P03372, whole entry, looked up: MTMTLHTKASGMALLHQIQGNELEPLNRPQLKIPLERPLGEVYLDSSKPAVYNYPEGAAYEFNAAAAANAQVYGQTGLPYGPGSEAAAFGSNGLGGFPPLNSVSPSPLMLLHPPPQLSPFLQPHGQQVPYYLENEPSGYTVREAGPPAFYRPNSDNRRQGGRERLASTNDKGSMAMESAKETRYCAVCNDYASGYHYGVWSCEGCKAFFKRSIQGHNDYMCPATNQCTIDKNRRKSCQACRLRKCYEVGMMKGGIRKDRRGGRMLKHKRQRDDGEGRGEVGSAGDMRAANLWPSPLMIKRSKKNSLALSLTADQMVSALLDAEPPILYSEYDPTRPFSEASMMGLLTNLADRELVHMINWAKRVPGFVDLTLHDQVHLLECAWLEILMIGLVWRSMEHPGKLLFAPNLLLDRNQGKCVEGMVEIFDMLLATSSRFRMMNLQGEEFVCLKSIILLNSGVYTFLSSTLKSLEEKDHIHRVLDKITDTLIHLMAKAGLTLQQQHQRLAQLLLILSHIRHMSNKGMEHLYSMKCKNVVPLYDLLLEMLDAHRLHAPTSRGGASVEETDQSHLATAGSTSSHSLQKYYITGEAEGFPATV
# UniProt Q92731, whole entry, looked up: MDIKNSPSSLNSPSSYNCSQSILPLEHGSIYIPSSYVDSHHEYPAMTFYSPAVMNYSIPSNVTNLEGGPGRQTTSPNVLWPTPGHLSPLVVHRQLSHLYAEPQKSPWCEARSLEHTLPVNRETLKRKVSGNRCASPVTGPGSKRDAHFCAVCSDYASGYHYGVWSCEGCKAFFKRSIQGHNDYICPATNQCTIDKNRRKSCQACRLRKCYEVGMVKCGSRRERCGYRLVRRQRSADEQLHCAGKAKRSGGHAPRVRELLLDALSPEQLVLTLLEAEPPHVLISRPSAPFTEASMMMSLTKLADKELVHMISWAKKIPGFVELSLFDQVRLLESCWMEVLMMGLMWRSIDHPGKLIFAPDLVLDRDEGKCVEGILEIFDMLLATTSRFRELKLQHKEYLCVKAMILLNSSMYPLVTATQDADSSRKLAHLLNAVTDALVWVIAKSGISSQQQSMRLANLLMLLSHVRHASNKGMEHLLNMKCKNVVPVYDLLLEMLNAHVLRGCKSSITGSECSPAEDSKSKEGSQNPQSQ
# UniProt Q07869: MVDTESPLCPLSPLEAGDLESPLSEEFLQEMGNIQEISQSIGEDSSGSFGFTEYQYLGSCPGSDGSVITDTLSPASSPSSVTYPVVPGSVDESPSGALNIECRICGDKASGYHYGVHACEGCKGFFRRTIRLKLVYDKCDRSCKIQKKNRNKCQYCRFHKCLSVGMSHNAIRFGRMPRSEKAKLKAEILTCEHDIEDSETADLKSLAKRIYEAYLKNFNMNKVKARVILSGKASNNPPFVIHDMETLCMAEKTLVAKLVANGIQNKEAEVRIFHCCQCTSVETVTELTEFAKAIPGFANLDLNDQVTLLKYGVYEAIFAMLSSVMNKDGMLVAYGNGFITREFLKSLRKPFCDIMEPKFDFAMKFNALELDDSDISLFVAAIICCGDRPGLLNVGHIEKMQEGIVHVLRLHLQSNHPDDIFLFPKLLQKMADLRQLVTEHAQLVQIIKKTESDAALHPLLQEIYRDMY
# UniProt P22199: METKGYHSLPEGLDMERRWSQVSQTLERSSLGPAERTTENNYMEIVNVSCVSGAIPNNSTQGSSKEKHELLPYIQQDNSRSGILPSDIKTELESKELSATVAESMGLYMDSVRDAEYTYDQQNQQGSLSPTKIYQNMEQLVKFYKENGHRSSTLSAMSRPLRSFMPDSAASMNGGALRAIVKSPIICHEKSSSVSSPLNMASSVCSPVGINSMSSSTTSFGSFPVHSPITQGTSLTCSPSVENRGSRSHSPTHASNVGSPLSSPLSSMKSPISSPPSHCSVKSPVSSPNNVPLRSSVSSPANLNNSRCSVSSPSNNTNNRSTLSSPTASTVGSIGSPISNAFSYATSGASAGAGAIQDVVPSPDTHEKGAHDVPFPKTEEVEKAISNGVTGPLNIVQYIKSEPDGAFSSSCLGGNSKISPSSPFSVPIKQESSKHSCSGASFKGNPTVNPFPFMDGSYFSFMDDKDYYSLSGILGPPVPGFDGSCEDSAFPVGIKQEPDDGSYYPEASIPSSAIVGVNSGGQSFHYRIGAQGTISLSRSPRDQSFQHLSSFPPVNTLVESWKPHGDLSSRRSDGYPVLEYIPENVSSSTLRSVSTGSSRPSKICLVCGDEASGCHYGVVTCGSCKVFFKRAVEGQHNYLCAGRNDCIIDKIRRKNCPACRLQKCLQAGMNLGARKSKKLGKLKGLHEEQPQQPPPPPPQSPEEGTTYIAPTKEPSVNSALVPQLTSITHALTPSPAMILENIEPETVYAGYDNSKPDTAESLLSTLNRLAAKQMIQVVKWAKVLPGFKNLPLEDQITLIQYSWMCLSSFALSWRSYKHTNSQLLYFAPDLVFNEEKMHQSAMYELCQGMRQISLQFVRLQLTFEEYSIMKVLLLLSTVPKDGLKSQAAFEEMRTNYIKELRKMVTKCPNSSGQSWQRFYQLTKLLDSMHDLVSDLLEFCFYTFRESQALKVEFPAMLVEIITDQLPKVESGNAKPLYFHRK
# UniProt P06401: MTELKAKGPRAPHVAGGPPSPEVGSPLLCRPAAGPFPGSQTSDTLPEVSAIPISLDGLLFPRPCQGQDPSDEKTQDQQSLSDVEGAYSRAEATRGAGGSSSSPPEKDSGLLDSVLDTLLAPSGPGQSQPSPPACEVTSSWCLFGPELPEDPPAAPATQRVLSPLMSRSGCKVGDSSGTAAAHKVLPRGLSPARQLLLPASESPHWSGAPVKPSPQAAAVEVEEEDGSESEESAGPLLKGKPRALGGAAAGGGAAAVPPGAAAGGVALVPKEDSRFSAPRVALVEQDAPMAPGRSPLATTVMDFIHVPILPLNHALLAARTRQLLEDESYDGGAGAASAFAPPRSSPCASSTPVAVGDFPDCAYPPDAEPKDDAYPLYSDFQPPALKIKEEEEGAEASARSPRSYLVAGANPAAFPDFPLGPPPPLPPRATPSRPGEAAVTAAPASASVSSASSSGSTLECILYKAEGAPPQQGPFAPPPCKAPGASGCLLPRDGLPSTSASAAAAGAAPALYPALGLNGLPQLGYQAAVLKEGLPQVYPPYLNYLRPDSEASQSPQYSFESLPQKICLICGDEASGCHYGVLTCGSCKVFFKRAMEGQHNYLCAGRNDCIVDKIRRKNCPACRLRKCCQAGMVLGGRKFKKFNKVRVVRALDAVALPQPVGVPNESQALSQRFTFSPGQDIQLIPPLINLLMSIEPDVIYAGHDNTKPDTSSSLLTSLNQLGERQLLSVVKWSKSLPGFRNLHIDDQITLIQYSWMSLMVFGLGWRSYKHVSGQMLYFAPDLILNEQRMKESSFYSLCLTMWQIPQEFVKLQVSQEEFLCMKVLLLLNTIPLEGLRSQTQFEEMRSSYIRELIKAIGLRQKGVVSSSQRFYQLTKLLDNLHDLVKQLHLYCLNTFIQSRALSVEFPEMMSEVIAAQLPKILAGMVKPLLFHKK
# UniProt P10275: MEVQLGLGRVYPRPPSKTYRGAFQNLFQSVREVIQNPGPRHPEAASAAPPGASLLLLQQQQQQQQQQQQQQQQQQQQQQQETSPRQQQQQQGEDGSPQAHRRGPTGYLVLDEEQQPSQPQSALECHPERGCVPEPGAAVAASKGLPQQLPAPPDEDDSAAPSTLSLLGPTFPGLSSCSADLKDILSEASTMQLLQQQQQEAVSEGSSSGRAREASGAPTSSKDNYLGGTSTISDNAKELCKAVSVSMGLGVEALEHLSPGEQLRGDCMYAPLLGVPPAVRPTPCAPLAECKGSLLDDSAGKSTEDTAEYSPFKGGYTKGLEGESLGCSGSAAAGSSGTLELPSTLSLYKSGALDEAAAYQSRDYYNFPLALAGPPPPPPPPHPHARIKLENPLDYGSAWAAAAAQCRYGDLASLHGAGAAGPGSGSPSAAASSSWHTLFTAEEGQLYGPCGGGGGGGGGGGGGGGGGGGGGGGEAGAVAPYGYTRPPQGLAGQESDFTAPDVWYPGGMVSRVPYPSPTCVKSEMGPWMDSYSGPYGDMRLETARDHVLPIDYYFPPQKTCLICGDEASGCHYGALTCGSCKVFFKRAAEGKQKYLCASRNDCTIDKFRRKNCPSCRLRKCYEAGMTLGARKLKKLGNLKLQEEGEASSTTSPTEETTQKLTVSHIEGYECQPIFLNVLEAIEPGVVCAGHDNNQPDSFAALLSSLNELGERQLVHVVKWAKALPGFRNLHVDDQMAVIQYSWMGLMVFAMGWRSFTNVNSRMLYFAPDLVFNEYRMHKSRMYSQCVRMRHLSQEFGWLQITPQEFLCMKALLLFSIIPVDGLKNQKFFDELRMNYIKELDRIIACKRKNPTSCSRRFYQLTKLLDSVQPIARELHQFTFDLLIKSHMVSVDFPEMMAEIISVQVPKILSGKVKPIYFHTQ
# UniProt P10276, whole entry, looked up: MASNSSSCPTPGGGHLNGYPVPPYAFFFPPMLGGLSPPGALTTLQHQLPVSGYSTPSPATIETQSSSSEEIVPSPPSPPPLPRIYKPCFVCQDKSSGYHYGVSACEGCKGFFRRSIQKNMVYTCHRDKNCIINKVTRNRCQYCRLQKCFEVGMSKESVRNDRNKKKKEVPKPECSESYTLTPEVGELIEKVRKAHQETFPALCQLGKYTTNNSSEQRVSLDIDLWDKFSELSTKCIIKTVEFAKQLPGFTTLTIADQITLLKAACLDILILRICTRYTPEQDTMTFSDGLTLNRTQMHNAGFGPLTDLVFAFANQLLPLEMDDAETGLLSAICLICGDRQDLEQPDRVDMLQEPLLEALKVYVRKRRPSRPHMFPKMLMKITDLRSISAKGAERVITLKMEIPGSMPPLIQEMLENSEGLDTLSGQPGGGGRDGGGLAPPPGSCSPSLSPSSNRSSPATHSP
# The shares of active, inactive and inconclusive entries below differ from those in the screen. Potencies of inconclusive entries are doubtful fits and often do not repeat. Activity calls are given as the source filed them. Rule for the calls: active = hit-call score of the fitted dose curve at least 0.9, where 1 is the maximum; inconclusive = response in the unintended direction; inactive = score below 0.9.
# Assays:
# [1] = biological target: T1, Estrogen receptor (Homo sapiens) + Estrogen receptor beta (Homo sapiens) (UniProt P03372+Q92731); test: OT_ER_ERaERb_0480: Odyssey Thera (OT) 8-hour HEK293T Protein-Complementation Assay for Estrogen Receptor-alpha/-beta Heterodimer (AID 2283352)
# Summary of the method: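 HEK293T cells expressing ER-alpha/ER-beta LBD fusions to complementary reporter fragments were dosed with compound for 8 hours. Heterodimer formation was read as increased nuclear (agonist) or nuclear plus cytoplasmic (antagonist) mean fluorescence intensity versus DMSO vehicle.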
# [2] = biological target: human Peroxisome Proliferator-activated Receptor alpha (PPARa), PPARA (gene 5465) (UniProt Q07869); test: NVS_NR_hPPARa: NovaScreen (NVS) Nuclear Receptor Binding Assay for human Peroxisome Proliferator-activated Receptor alpha (PPARa) (AID 2283359);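 note: activity means loss of TR-FRET signal versus DMSO baseline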
# Summary of the method: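 Cell-free TR-FRET binding assay with extracted PPARα protein, read 1 h after dosing. Primary screen in duplicate at 25 uM, with actives retested in concentration series. Loss of signal versus DMSO.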
# [3] = biological target: rat Mineralocorticoid Receptor (MR), Nr3c2 (gene 25672) (UniProt P22199); test: NVS_NR_rMR: NovaScreen (NVS) Nuclear Receptor Binding Assay for rat Mineralocorticoid Receptor (MR) (AID 2283355)
# Summary of the method: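 Cell-free radioligand binding to mineralocorticoid receptor from adrenalectomized rat brain supernatant, scintillation counting after 24 h. Primary screen in duplicate at 25 uM; actives retested in concentration series. Loss of specific binding versus DMSO.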
# [4] = biological target: PGR (gene 5241) (UniProt P06401); test: NVS_NR_hPR: NovaScreen (NVS) Nuclear Receptor Binding Assay for human Progestron Receptor (PR) (AID 2283360);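 note: active means loss of bound radioligand signal versus DMSO baseline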
# Summary of the method: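 Radioligand competition binding on receptor extracted from T47D cells, read by scintillation counting 18 h after dosing. Loss of signal versus DMSO; primary screen in duplicate at 25 uM, actives followed in concentration series.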
# [5] = biological target: Androgen Receptor/SRC-1 Co-activator, AR (gene 367) (UniProt P10275); test: OT_AR_ARSRC1_0480: Odyssey Thera (OT) 8-hour HEK293T Protein-Complementation Assay for Androgen Receptor/SRC-1 Co-activator (AID 2283354);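 note: hits raise the complementation signal above DMSO so AC50 marks enhancers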
# Summary of the method: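 HEK293T cells stably expressing AR and SRC-1 fused to Venus YFP fragments, imaged 8 h after dosing. Complementation fluorescence scored as nuclear/cytoplasmic ratio at 488 nm in at least 400 cells per image; gain fitted versus DMSO.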
# [6] = biological target: Estrogen receptor beta (Homo sapiens) (UniProt Q92731); test: OT_ER_ERbERb_0480: Odyssey Thera (OT) 8-hour HEK293T Protein-Complementation Assay for Estrogen Receptor-beta/-beta Homodimer (AID 2283357);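 note: active means signal gain over DMSO baseline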
# Summary of the method: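 Fluorescence intensity, nuclear for agonists and nuclear plus cytoplasmic for antagonists, was quantified by laser scanning cytometry versus vehicle after 8 h treatment. The cells were HEK293T stably carrying ER beta LBD fragment-complementation partners.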
# [7] = biological target: Retinoic acid receptor alpha (Homo sapiens) (UniProt P10276); test: NVS_NR_hRAR_Antagonist: NovaScreen (NVS) Nuclear Receptor Binding Assay for human Retinoic Acid Alpha Receptor Antagonism (RAR) (AID 2283358)
# Summary of the method: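 Cell-free TR-FRET binding assay with extracted human RARalpha in antagonist mode, read 2 h after dosing. Loss of signal was fitted relative to DMSO; the primary screen used 25 uM in duplicate, with concentration series on follow-up.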
# [8] = biological target: Androgen Receptor/SRC-1 Co-activator, AR (gene 367) (UniProt P10275); test: OT_AR_ARSRC1_0960: Odyssey Thera (OT) 16-hour HEK293T Protein-Complementation Assay for Androgen Receptor/SRC-1 Co-activator (AID 2283353);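 note: actives raise the signal above DMSO so potency reflects increased AR and SRC-1 complex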
# Summary of the method: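 HEK293T cells stably expressing AR and SRC-1 fused to Venus YFP fragments, imaged 16 h after dosing. Nuclear/cytoplasmic fluorescence ratio at 488 nm from at least 400 cells per image; gain of signal relative to DMSO.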
# [9] = biological target: T1, Estrogen receptor (Homo sapiens) + Estrogen receptor beta (Homo sapiens); test: OT_ER_ERaERb_1440: Odyssey Thera (OT) 24-hour HEK293T Protein-Complementation Assay for Estrogen Receptor-alpha/-beta Homodimer (AID 2283356);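 note: heteromer of ER alpha and ER beta binding domains; hits raise reporter fluorescence and both agonists and antagonists give an increase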
# Summary of the method: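 HEK293T cells stably expressing a PCA pair of ERα LBD (aa 310-547) and ERβ LBD (aa 263-489) were dosed for 24 h. Fluorescence intensity increase versus DMSO vehicle was fitted as gain-of-signal.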
compound,measurement,setting,value
CCCCCCCCCCCCCC[P+](CCCC)(CCCC)CCCC,AC50,[1],inconclusive: 12.6 µM
same,AC50,[2],active: 8.54 µM
OC12N=C(c3ccccc3)SC1Cc1cc(Cl)ccc12 (stereo not given),AC50,[3],inconclusive: 25 µM
C#C[C@]1(O)CC[C@H]2[C@@H]3CCc4cc(OC)ccc4[C@H]3CC[C@@]21C,outcome,[3],inactive
Oc1cc2ccccc2c2ccccc12,AC50,[1],inconclusive: 15.7 µM
same,AC50,[4],active: 11 µM
CN(C)c1ccc(C(=C2C=CC(=[N+](C)C)C=C2)c2ccc(N(C)C)cc2)cc1,AC50,[5],active: 3.28 µM
same,AC50,[6],inconclusive: 0.996 µM
same,AC50,[4],inconclusive: 45.9 µM
CCOC(=O)COc1cc(-n2ncc(C(F)(F)F)c(C)c2=O)c(F)cc1Cl,outcome,[1],inactive
same,AC50,[6],inconclusive: 50 µM
same,AC50,[7],inconclusive: 25 µM
O=c1c(O)c(-c2ccc(O)c(O)c2)oc2cc(O)cc(O)c12,AC50,[1],active: 13.4 µM
same,AC50,[6],active: 2.32 µM
O=C(O)c1ccc2c(c1)C(=O)OC2=O,AC50,[5],inconclusive: 50 µM
CCCCCCCCCCCCCCCCO,AC50,[1],inconclusive: 50 µM
same,AC50,[6],inconclusive: 50 µM
same,AC50,[2],inconclusive: 6.6 µM
same,AC50,[4],inconclusive: 0.163 µM
Cc1ccc(N)cc1O,AC50,[5],inconclusive: 50 µM
same,AC50,[7],inconclusive: 25 µM
O=C(O)c1ccccc1C(c1ccc(O)cc1)c1ccc(O)cc1,AC50,[5],inconclusive: 50 µM
same,outcome,[6],inactive
COCC(C)OCC(C)OCC(C)O (stereo not given),AC50,[1],inconclusive: 0.434 µM
same,outcome,[4],inactive
CC(C)=CCC[C@H](C)CCO,outcome,[5],inactive
COc1ccc(S(=O)(=O)N2C(=O)[C@@](c3ccccc3OC)(N3C[C@H](O)C[C@H]3C(=O)N(C)C)c3cc(Cl)ccc32)c(OC)c1,AC50,[5],active: 27.2 µM
same,AC50,[2],inconclusive: 0.622 µM
COC(=O)c1c(Cl)c(Cl)c(C(=O)OC)c(Cl)c1Cl,outcome,[1],inactive
same,AC50,[2],inconclusive: 25 µM
Cc1ccc(O)c(-n2nc3ccccc3n2)c1,outcome,[1],inactive
same,AC50,[2],inconclusive: 25 µM
CC(C)CCCCCCc1ccc(OCCOCCO)cc1,AC50,[5],inconclusive: 25 µM
O=C(O)Cn1c(=O)n(Cc2ccc(Br)cc2F)c(=O)c2ccc(Cl)cc21,AC50,[5],inconclusive: 50 µM
same,outcome,[6],inactive
same,AC50,[2],inconclusive: 0.924 µM
same,AC50,[4],inconclusive: 0.178 µM
OCCO,outcome,[5],inactive
O=C1C=CC(=O)N1c1ccccc1,AC50,[1],inconclusive: 50 µM
same,AC50,[6],inconclusive: 50 µM
O=c1[nH]c2ccc(S(=O)CCN3CCC(Cc4ccc(F)cc4)CC3)cc2o1 (stereo not given),AC50,[1],inconclusive: 13.2 µM
same,AC50,[6],inconclusive: 50 µM
same,AC50,[2],inconclusive: 6.74 µM
CC(C)=CCCC(C)CCO (stereo not given),AC50,[1],inconclusive: 50 µM
same,outcome,[2],inactive
Cc1cccc([N+](=O)[O-])c1C,AC50,[5],inconclusive: 50 µM
Cc1ccc(C(C)C)cc1,AC50,[8],inconclusive: 50 µM
same,AC50,[5],inconclusive: 4.18 µM
NC(=O)c1nc(-c2cccc(-c3cc(F)ccc3OCC(F)(F)C(F)(F)F)c2)n[nH]1,AC50,[1],inconclusive: 50 µM
same,AC50,[6],inconclusive: 50 µM
CC[C@H](C)[C@@H](C(=O)O)n1sc2ccccc2c1=O,outcome,[1],inactive
same,outcome,[6],inactive
C[C@]12CC[C@@H]3c4ccc(O)cc4C[C@@H](CCCCCCCCCS(=O)CCCC(F)(F)C(F)(F)F)[C@H]3[C@@H]1CC[C@@H]2O (stereo not given in full),AC50,[5],inconclusive: 0.5 µM
CCCCOCCOCCOCCO,AC50,[1],inconclusive: 28.5 µM
same,outcome,[9],inactive
same,AC50,[2],inconclusive: 0.908 µM
O=[N+]([O-])C(CO)(CO)CO,AC50,[1],inconclusive: 50 µM
same,AC50,[6],inconclusive: 50 µM
Cc1nn(C)c(Oc2ccccc2)c1C=NOCc1ccc(C(=O)OC(C)(C)C)cc1,outcome,[5],inactive
same,outcome,[4],inactive
C=CC(C)CCCC(C)(C)O (stereo not given),outcome,[1],inactive
same,AC50,[6],inconclusive: 50 µM
CC[C@H](c1ccc(O)cc1)[C@@H](CC)c1ccc(O)cc1,AC50,[5],inconclusive: 0.5 µM
same,AC50,[3],inconclusive: 0.00226 µM
O=C(N[C@@H](c1ccccc1)[C@@H]1CCCCN1)c1cccc(C(F)(F)F)c1Cl,AC50,[1],inconclusive: 50 µM
same,outcome,[2],inactive
CCN(CC)CCNc1ccc(CNC=O)c2sc3ccc(OC)cc3c(=O)c12,AC50,[1],inconclusive: 9.96 µM
same,AC50,[9],inconclusive: 22.5 µM
same,AC50,[7],inconclusive: 2.73 µM
same,AC50,[2],inconclusive: 1.23 µM
CCCCCCCCCCCCCCCCCCOS(=O)(=O)O,outcome,[1],inactive
same,outcome,[7],inactive
C[C@]12C[C@H](O)[C@H]3[C@@H](CCC4=CC(=O)CC[C@@]43C)[C@@H]1CC[C@@H]2C(=O)CO,AC50,[1],inconclusive: 50 µM
same,AC50,[4],active: 0.403 µM
CCCOC(=O)c1ccc(C(=O)OCCC)nc1,AC50,[8],inconclusive: 50 µM

# In another format: results already given
compound	measurement	setting	value
COc1ccc(S(=O)(=O)N2C(=O)[C@@](c3ccccc3OC)(N3C[C@H](O)C[C@H]3C(=O)N(C)C)c3cc(Cl)ccc32)c(OC)c1	AC50	[2]	inconclusive: 0.622 µM
COC(=O)c1c(Cl)c(Cl)c(C(=O)OC)c(Cl)c1Cl	outcome	[1]	inactive
same	AC50	[2]	inconclusive: 25 µM
Cc1ccc(O)c(-n2nc3ccccc3n2)c1	outcome	[1]	inactive
same	AC50	[2]	inconclusive: 25 µM
CC(C)CCCCCCc1ccc(OCCOCCO)cc1	AC50	[5]	inconclusive: 25 µM
O=C(O)Cn1c(=O)n(Cc2ccc(Br)cc2F)c(=O)c2ccc(Cl)cc21	AC50	[5]	inconclusive: 50 µM
same	outcome	[6]	inactive
same	AC50	[2]	inconclusive: 0.924 µM
same	AC50	[4]	inconclusive: 0.178 µM
OCCO	outcome	[5]	inactive
O=C1C=CC(=O)N1c1ccccc1	AC50	[1]	inconclusive: 50 µM
same	AC50	[6]	inconclusive: 50 µM
O=c1[nH]c2ccc(S(=O)CCN3CCC(Cc4ccc(F)cc4)CC3)cc2o1 (stereo not given)	AC50	[1]	inconclusive: 13.2 µM
same	AC50	[6]	inconclusive: 50 µM
same	AC50	[2]	inconclusive: 6.74 µM
CC(C)=CCCC(C)CCO (stereo not given)	AC50	[1]	inconclusive: 50 µM
same	outcome	[2]	inactive
Cc1cccc([N+](=O)[O-])c1C	AC50	[5]	inconclusive: 50 µM
Cc1ccc(C(C)C)cc1	AC50	[8]	inconclusive: 50 µM
same	AC50	[5]	inconclusive: 4.18 µM
NC(=O)c1nc(-c2cccc(-c3cc(F)ccc3OCC(F)(F)C(F)(F)F)c2)n[nH]1	AC50	[1]	inconclusive: 50 µM
same	AC50	[6]	inconclusive: 50 µM
